In patent publication US10308637B2 (LifeSci Pharmaceuticals, Inc., priority 2015, dated 2019):
pEC50: −log10 of the molar value. At least one compound was matched to its structure with a doubt left.

Experiment: Contact Assay (percentage inhibition from fluorescence intensity)
Type: biochemical
Procedure: The percentage inhibition was calculated using the following equation:
[formula] where, Mean(BG) is the average value of the fluorescence intensity of the background wells and Mean(PC) is the average value of the fluorescence intensity of the positive control wells.
Table 4 provides the EC50 values of various compounds disclosed herein.

## Cc1cc(N)nc(C)c1CNC(=O)c1ccnc(Cc2ccc3ncc(CC(F)F)cc3c2)c1 [Example 278, N-((6-amino-2,4-dimethylpyridin-3-yl)methyl)-2-((3-(2,2-difluoroethyl)quinolin-6-yl)methyl)isonicotinamide]
  pEC50: ≥ 7.00

## Cc1nc(N)ccc1CNC(=O)c1ccnc(Cc2ccc3ncc(C4CC4)cc3c2)c1 [Example 244, N-((6-amino-2-methylpyridin-3-yl)methyl)-2-((3-cyclopropylquinolin-6-yl)methyl)isonicotinamide]
  pEC50: ≥ 7.00
